Measured values reported in patent US20110118181A1.
Results are given in words; binding and its absence hold for the method and conditions named. Some entries that bind do so weakly or less than the wild type.

Sequences of proteins named here, by UniProt entry; tags and fusion partners are left off. Residues count along the entry.
UniProt Q8NBP7, residues 31-692: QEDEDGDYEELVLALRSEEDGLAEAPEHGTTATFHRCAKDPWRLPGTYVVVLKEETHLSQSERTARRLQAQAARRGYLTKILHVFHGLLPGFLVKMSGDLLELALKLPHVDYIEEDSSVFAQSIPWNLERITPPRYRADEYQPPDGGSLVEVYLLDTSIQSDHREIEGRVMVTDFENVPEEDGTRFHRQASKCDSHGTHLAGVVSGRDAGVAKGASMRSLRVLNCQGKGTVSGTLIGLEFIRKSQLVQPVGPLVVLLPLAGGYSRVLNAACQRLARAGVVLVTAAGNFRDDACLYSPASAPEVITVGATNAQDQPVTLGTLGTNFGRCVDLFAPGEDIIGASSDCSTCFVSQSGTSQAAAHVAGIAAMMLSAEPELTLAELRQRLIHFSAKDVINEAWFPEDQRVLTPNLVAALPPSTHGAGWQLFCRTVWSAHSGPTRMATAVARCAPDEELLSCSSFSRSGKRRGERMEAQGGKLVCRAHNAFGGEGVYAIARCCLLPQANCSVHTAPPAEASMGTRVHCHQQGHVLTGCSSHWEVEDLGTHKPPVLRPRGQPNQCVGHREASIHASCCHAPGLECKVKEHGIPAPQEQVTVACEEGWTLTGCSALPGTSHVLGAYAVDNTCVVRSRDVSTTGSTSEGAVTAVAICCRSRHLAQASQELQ

Molecular target: purified biotin-conjugated PCSK9 (UniProt Q8NBP7)
Experiment: AlphaScreen competition of biotin-PCSK9 binding to His6-LDLR ectodomain

## KGVDEVTIVNILTNRSNAQRQDIAFAYQRRTKKELASALKSALSGHLET [AnxA2-derived peptide extending from amino acid 49 to 97]
  binding: binds
